# In the supplement of paper PMC8728848:
# This is one part of the list.
# Tests used:
# Experiment in all cases: glycan array binding signal (z-score within array); higher = stronger binding
# Conditions in all cases: glycan notation: IUPAC condensed, linker removed
# [1] = target: Man(a1-2)Man(a1-3)[Man(a1-2)Man(a1-6)]Man
# Outline: (§1)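 Negative Z-scores can be read as non-binding. The Z-score is calculated within each array and then averaged across arrays of one protein sequence at different concentrations or buffers and across linkers. Arrays, 3228 in all, were curated from the Consortium for Functional Glycomics database and kept only where the protein sequence was available.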
# [2] = target: Man(a1-2)Man(a1-3)[Man(a1-2)Man(a1-6)]Man(a1-6)[Man(a1-2)Man(a1-2)Man(a1-3)]Man
# Outline: as §1
# [3] = target: Man(a1-2)Man(a1-3)[Man(a1-2)Man(a1-6)]Man(a1-6)[Man(a1-2)Man(a1-2)Man(a1-3)]Man(b1-4)GlcNAc(b1-4)GlcNAc
# Outline: as §1
# [4] = target: Man(a1-2)Man(a1-3)[Man(a1-6)]Man(a1-6)[Man(a1-2)Man(a1-3)]Man(b1-4)GlcNAc(b1-4)GlcNAc
# Outline: as §1
# [5] = target: Man(a1-2)Man(a1-6)[Man(a1-3)]Man(a1-6)[Man(a1-2)Man(a1-2)Man(a1-3)]Man
# Outline: as §1
# [6] = target: Man(a1-2)Man(a1-6)[Man(a1-3)]Man(a1-6)[Man(a1-2)Man(a1-2)Man(a1-3)]Man(b1-4)GlcNAc(b1-4)GlcNAc
# Outline: as §1
# Man(a1-3)[Man(a1-6)]Man = target: Man(a1-3)[Man(a1-6)]Man
# Outline: as §1
# [7] = target: Man(a1-3)[Man(a1-6)]Man(a1-6)[Man(a1-2)Man(a1-3)]Man(b1-4)GlcNAc(b1-4)GlcNAc
# Outline: as §1
# [8] = target: Man(a1-3)[Man(a1-6)]Man(a1-6)[Man(a1-3)]Man
# Outline: as §1
# [9] = target: Man(a1-3)[Man(a1-6)]Man(a1-6)[Man(a1-3)]Man(b1-4)GlcNAc(b1-4)GlcNAc
# Outline: as §1
# [10] = target: Man(a1-3)[Man(a1-6)]Man(b1-4)GlcNAc(b1-4)GlcNAc
# Outline: as §1
# [11] = target: Man(a1-3)[Man(a1-6)]Man(b1-4)GlcNAc(b1-4)[Fuc(a1-6)]GlcNAc
# Outline: as §1
# Man(a1-6)Man = target: Man(a1-6)Man
# Outline: as §1
# Man(b1-4)GlcNAc = target: Man(b1-4)GlcNAc
# Outline: as §1
# MurNAc(b1-4)GlcNAc = target: MurNAc(b1-4)GlcNAc
# Outline: as §1
# Neu5Ac(a2-3)Gal = target: Neu5Ac(a2-3)Gal
# Outline: as §1
# [12] = target: Neu5Ac(a2-3)Gal(b1-3)GalNAc
# Outline: as §1
# [13] = target: Neu5Ac(a2-3)Gal(b1-3)GalNAc(b1-3)Gal(a1-4)Gal(b1-4)Glc
# Outline: as §1
# [14] = target: Neu5Ac(a2-3)Gal(b1-3)GalNAc(b1-4)Gal(b1-4)Glc
# Outline: as §1
# [15] = target: Neu5Ac(a2-3)Gal(b1-3)GalNAc(b1-4)[Neu5Ac(a2-3)]Gal(b1-4)Glc
# Outline: as §1
# [16] = target: Neu5Ac(a2-3)Gal(b1-3)GalNAc(b1-4)[Neu5Ac(a2-8)Neu5Ac(a2-3)]Gal(b1-4)Glc
# Outline: as §1
# [17] = target: Neu5Ac(a2-3)Gal(b1-3)GalNAc6S
# Outline: as §1
# [18] = target: Neu5Ac(a2-3)Gal(b1-3)GlcNAc
# Outline: as §1
# [19] = target: Neu5Ac(a2-3)Gal(b1-3)GlcNAc(b1-2)Man
# Outline: as §1
# [20] = target: Neu5Ac(a2-3)Gal(b1-3)GlcNAc(b1-2)Man(a1-3)[GlcNAc(b1-4)][Neu5Ac(a2-3)Gal(b1-3)GlcNAc(b1-2)Man(a1-6)]Man(b1-4)GlcNAc(b1-4)GlcNAc
# Outline: as §1
# [21] = target: Neu5Ac(a2-3)Gal(b1-3)GlcNAc(b1-2)Man(a1-3)[Neu5Ac(a2-3)Gal(b1-3)GlcNAc(b1-2)Man(a1-6)]Man(b1-4)GlcNAc(b1-4)GlcNAc
# Outline: as §1
# [22] = target: Neu5Ac(a2-3)Gal(b1-3)GlcNAc(b1-2)[Neu5Ac(a2-3)Gal(b1-3)GlcNAc(b1-4)]Man(a1-6)[Neu5Ac(a2-3)Gal(b1-3)GlcNAc(b1-2)Man(a1-3)]Man(b1-4)GlcNAc(b1-4)GlcNAc
# Outline: as §1
# [23] = target: Neu5Ac(a2-3)Gal(b1-3)GlcNAc(b1-3)Gal(b1-3)GlcNAc
# Outline: as §1
# [24] = target: Neu5Ac(a2-3)Gal(b1-3)GlcNAc(b1-3)Gal(b1-4)GlcNAc
# Outline: as §1
# [25] = target: Neu5Ac(a2-3)Gal(b1-3)GlcNAc(b1-3)GalNAc
# Outline: as §1
# [26] = target: Neu5Ac(a2-3)Gal(b1-3)GlcNAc(b1-6)GalNAc
# Outline: as §1
# [27] = target: Neu5Ac(a2-3)Gal(b1-3)GlcNAc6S
# Outline: as §1
# [28] = target: Neu5Ac(a2-3)Gal(b1-3)[Fuc(a1-4)]GlcNAc
# Outline: as §1
# [29] = target: Neu5Ac(a2-3)Gal(b1-3)[Fuc(a1-4)]GlcNAc(b1-3)Gal(b1-3)[Fuc(a1-4)]GlcNAc
# Outline: as §1
# [30] = target: Neu5Ac(a2-3)Gal(b1-3)[Fuc(a1-4)]GlcNAc(b1-3)Gal(b1-4)[Fuc(a1-3)]GlcNAc
# Outline: as §1
# [31] = target: Neu5Ac(a2-3)Gal(b1-3)[GlcNAc(b1-6)]GalNAc
# Outline: as §1
# [32] = target: Neu5Ac(a2-3)Gal(b1-3)[Neu5Ac(a2-6)]GalNAc
# Outline: as §1
# [33] = target: Neu5Ac(a2-3)Gal(b1-3)[Neu5Ac(a2-6)]GlcNAc(b1-3)[Fuc(a1-3)[Gal(b1-4)]GlcNAc(b1-6)]Gal(b1-4)Glc
# Outline: as §1
# [34] = target: Neu5Ac(a2-3)Gal(b1-3)]Neu5Ac(a2-3)Gal(b1-4)]GlcNAc
# Outline: as §1
# Neu5Ac(a2-3)Gal(b1-4)Glc = target: Neu5Ac(a2-3)Gal(b1-4)Glc
# Outline: as §1
# [35] = target: Neu5Ac(a2-3)Gal(b1-4)GlcNAc
# Outline: as §1
# [36] = target: Neu5Ac(a2-3)Gal(b1-4)GlcNAc(b1-2)Man
# Outline: as §1
# [37] = target: Neu5Ac(a2-3)Gal(b1-4)GlcNAc(b1-2)Man(a1-3)[GlcNAc(b1-4)][Neu5Ac(a2-3)Gal(b1-4)GlcNAc(b1-2)Man(a1-6)]Man(b1-4)GlcNAc(b1-4)GlcNAc
# Outline: as §1
# [38] = target: Neu5Ac(a2-3)Gal(b1-4)GlcNAc(b1-2)Man(a1-3)[Neu5Ac(a2-3)Gal(b1-4)GlcNAc(b1-2)Man(a1-6)]Man(b1-4)GlcNAc(b1-4)GlcNAc
# Outline: as §1
# [39] = target: Neu5Ac(a2-3)Gal(b1-4)GlcNAc(b1-2)Man(a1-3)[Neu5Ac(a2-3)Gal(b1-4)GlcNAc(b1-2)Man(a1-6)]Man(b1-4)GlcNAc(b1-4)[Fuc(a1-6)]GlcNAc
# Outline: as §1
binder,measurement,setting,value
"AFL6 (Aspergillus fumigatus), Q4WKJ1 (protein) MSFHLTAEDIRIEDGHRLVARLRNADGDLQDASIDLNTCLGNDNGHFQWDGVDFSHSAQDVHFAIEGGGQVPVLRAQLANQDGEFQDADVNLSERIENINGEFVFH",glycan array binding signal (z-score),[1],-0.608
same,glycan array binding signal (z-score),[2],-0.103
same,glycan array binding signal (z-score),[3],-0.201
same,glycan array binding signal (z-score),[4],-0.17
same,glycan array binding signal (z-score),[5],-0.466
same,glycan array binding signal (z-score),[6],-0.587
same,glycan array binding signal (z-score),Man(a1-3)[Man(a1-6)]Man,-0.731
same,glycan array binding signal (z-score),[7],-0.033
same,glycan array binding signal (z-score),[8],0.138
same,glycan array binding signal (z-score),[9],-0.308
same,glycan array binding signal (z-score),[10],-0.448
same,glycan array binding signal (z-score),[11],-0.578
same,glycan array binding signal (z-score),Man(a1-6)Man,0.29
same,glycan array binding signal (z-score),Man(b1-4)GlcNAc,-0.133
same,glycan array binding signal (z-score),MurNAc(b1-4)GlcNAc,-0.584
same,glycan array binding signal (z-score),Neu5Ac(a2-3)Gal,0.049
same,glycan array binding signal (z-score),[12],-0.419
same,glycan array binding signal (z-score),[13],0.377
same,glycan array binding signal (z-score),[14],-0.31
same,glycan array binding signal (z-score),[15],-0.312
same,glycan array binding signal (z-score),[16],-0.576
same,glycan array binding signal (z-score),[17],0.167
same,glycan array binding signal (z-score),[18],-0.342
same,glycan array binding signal (z-score),[19],-0.44
same,glycan array binding signal (z-score),[20],-0.296
same,glycan array binding signal (z-score),[21],-0.157
same,glycan array binding signal (z-score),[22],-0.133
same,glycan array binding signal (z-score),[23],-0.446
same,glycan array binding signal (z-score),[24],-0.831
same,glycan array binding signal (z-score),[25],0.844
same,glycan array binding signal (z-score),[26],-0.309
same,glycan array binding signal (z-score),[27],-0.697
same,glycan array binding signal (z-score),[28],0.861
same,glycan array binding signal (z-score),[29],-0.019
same,glycan array binding signal (z-score),[30],0.468
same,glycan array binding signal (z-score),[31],-0.145
same,glycan array binding signal (z-score),[32],-0.258
same,glycan array binding signal (z-score),[33],0.794
same,glycan array binding signal (z-score),[34],-0.495
same,glycan array binding signal (z-score),Neu5Ac(a2-3)Gal(b1-4)Glc,-0.315
same,glycan array binding signal (z-score),[35],-0.297
same,glycan array binding signal (z-score),[36],0.634
same,glycan array binding signal (z-score),[37],-0.535
same,glycan array binding signal (z-score),[38],0.029
same,glycan array binding signal (z-score),[39],0.094

# Part of the list above, with bars between the fields:
binder | measurement | setting | value
AFL6 (Aspergillus fumigatus), Q4WKJ1 (protein) MSFHLTAEDIRIEDGHRLVARLRNADGDLQDASIDLNTCLGNDNGHFQWDGVDFSHSAQDVHFAIEGGGQVPVLRAQLANQDGEFQDADVNLSERIENINGEFVFH | glycan array binding signal (z-score) | [9] | -0.308
same | glycan array binding signal (z-score) | [11] | -0.578
same | glycan array binding signal (z-score) | [14] | -0.31
